Measurements reported in PubChem BioAssay AID1259308 (NCATS, 2017)
The deposit covers about 59,000 reagents; below is an unselected part. Over the whole deposit, about 1,510 (2.6%) were called active. 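Calls use total luciferase alone and ignore viability, so some active siRNAs may act by altering cell number.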 Unmarked entries are inactive. The numbers tell different reagents against one gene apart. Further read-outs or replicates are left out here.

- Assay: 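Candidate targets for better recombinant protein yield in mammalian cells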 (primary screen)
- Cell system: human HEK293 embryonic kidney cells stably expressing firefly luciferase (HEK-CMV-Luc2-Hygro)
- Knock-down reagent: single siRNA against human genes, 0.8 pmol siRNA per well
- Time to read-out: 72 h
- Measured: 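Luciferase light (ONE-Glo) measured on one replicate plate set and viability (CellTiter-Glo) on the other, scaled to a negative control siRNA, with robust z-scores and luciferase per cell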
- Scale: total luciferase, z-score: higher = more reporter protein produced
- Rule for the call: 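Active when the median/MAD z-score for overall luciferase is greater than 3; a gene was taken forward for validation with new siRNAs if at least two of its three siRNAs passed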
- Calls: active = raised luciferase; inactive = no rise

PLEKHM1P1 #1 → total luciferase, z-score = -0.304
PLEKHM1P1 #2 → total luciferase, z-score = -0.368
PLEKHM1P1 #3 → total luciferase, z-score = -0.873
DENND1A #1 → total luciferase, z-score = -0.17
DENND1A #2 → total luciferase, z-score = -0.187
DENND1A #3 → total luciferase, z-score = 0.547

2 successive reagents from above, quoted:
PLEKHM1P1 #3 → total luciferase, z-score = -0.873
DENND1A #1 → total luciferase, z-score = -0.17

Next reagents follow.
SMG9 #1 → total luciferase, z-score = 0.982
SMG9 #2 → total luciferase, z-score = -0.237
SMG9 #3 → total luciferase, z-score = -0.61
BMP1 #1 → total luciferase, z-score = -0.54
BMP1 #2 → total luciferase, z-score = -0.266
BMP1 #3 → total luciferase, z-score = -0.182
